{"source": "PubChem BioAssay AID493246 (Drosophila RNAi Screening Center, 2011)", "purpose": "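Genes fly cells need to grow and stay alive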 (primary screen)", "system": "Drosophila Kc and S2R+ cells", "reagents": "long dsRNA against Drosophila genes", "measured": "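Raw, unnormalised count of remaining cells in each well; per-plate z-scores of cell number underlie the calls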", "direction": "Kc cell number and S2R+ cell number: higher = more cells remaining", "rule for the call": "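Counted as a hit if cell number falls by a z-score of at least 3 within its plate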", "note": "In all, the deposit lists about 21,000 reagents; shown is a random part of those that have a named target and a result. Of all reagents, 429 (2%) were called active. 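Values are raw and not normalised between plates; calls rest on per-plate z-scores that were not deposited.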 Names joined by + are all predicted targets of the reagent. Not stated in the record: the amount of reagent, the time to read-out."}
{"predicted target": "nompC", "dsRNA": "DRSC03581", "Kc cell number, rep 1": 1.52e6, "Kc cell number, rep 2": 1.76e6, "S2R+ cell number, rep 1": 1.06e6, "S2R+ cell number, rep 2": 1.24e6, "Call": "inactive"}
{"predicted target": "Vm34Ca", "dsRNA": "DRSC03475", "Kc cell number, rep 1": 1.54e6, "Kc cell number, rep 2": 1.57e6, "S2R+ cell number, rep 1": 1.05e6, "S2R+ cell number, rep 2": 1.14e6, "Call": "inactive"}
{"predicted target": "CG34451", "dsRNA": "DRSC09388", "Kc cell number, rep 1": 1.31e6, "Kc cell number, rep 2": 1.38e6, "S2R+ cell number, rep 1": 1.08e6, "S2R+ cell number, rep 2": 1.33e6, "Call": "inactive"}
{"predicted target": "CG34451", "dsRNA": "DRSC09389", "Kc cell number, rep 1": 1.45e6, "Kc cell number, rep 2": 1.50e6, "S2R+ cell number, rep 1": 1.14e6, "S2R+ cell number, rep 2": 1.32e6, "Call": "inactive"}
{"predicted target": "CG31960", "dsRNA": "DRSC00281", "Kc cell number, rep 1": 1.56e6, "Kc cell number, rep 2": 1.49e6, "S2R+ cell number, rep 1": 1.21e6, "S2R+ cell number, rep 2": 1.42e6, "Call": "inactive"}

A run of entries taken from the entries so far, for reference:
{"predicted target": "Vm34Ca", "dsRNA": "DRSC03475", "Kc cell number, rep 1": 1.54e6, "Kc cell number, rep 2": 1.57e6, "S2R+ cell number, rep 1": 1.05e6, "S2R+ cell number, rep 2": 1.14e6, "Call": "inactive"}
{"predicted target": "CG34451", "dsRNA": "DRSC09388", "Kc cell number, rep 1": 1.31e6, "Kc cell number, rep 2": 1.38e6, "S2R+ cell number, rep 1": 1.08e6, "S2R+ cell number, rep 2": 1.33e6, "Call": "inactive"}

More records follow.
{"predicted target": "CG3065", "dsRNA": "DRSC04333", "Kc cell number, rep 1": 1.31e6, "Kc cell number, rep 2": 1.36e6, "S2R+ cell number, rep 1": 9.36e5, "S2R+ cell number, rep 2": 1.04e6, "Call": "inactive"}
{"predicted target": "Prosalpha3", "dsRNA": "DRSC04644", "Kc cell number, rep 1": 1.35e6, "Kc cell number, rep 2": 1.45e6, "S2R+ cell number, rep 1": 7.88e5, "S2R+ cell number, rep 2": 4.49e5, "Call": "inactive"}
{"predicted target": "CG33255 (retired record) + hpRNA:CR32205", "dsRNA": "DRSC09610", "Kc cell number, rep 1": 1.57e6, "Kc cell number, rep 2": 1.65e6, "S2R+ cell number, rep 1": 1.03e6, "S2R+ cell number, rep 2": 1.20e6, "Call": "inactive"}
{"predicted target": "CG33255 (retired record) + hpRNA:CR32205", "dsRNA": "DRSC09611", "Kc cell number, rep 1": 1.47e6, "Kc cell number, rep 2": 1.55e6, "S2R+ cell number, rep 1": 1.11e6, "S2R+ cell number, rep 2": 1.33e6, "Call": "inactive"}
{"predicted target": "Nadk2", "dsRNA": "DRSC07072", "Kc cell number, rep 1": 1.38e6, "Kc cell number, rep 2": 1.44e6, "S2R+ cell number, rep 1": 1.29e6, "S2R+ cell number, rep 2": 1.35e6, "Call": "inactive"}
{"predicted target": "CG1695", "dsRNA": "DRSC20538", "Kc cell number, rep 1": 1.43e6, "Kc cell number, rep 2": 1.52e6, "S2R+ cell number, rep 1": 1.07e6, "S2R+ cell number, rep 2": 1.13e6, "Call": "inactive"}
{"predicted target": "Cdk5", "dsRNA": "DRSC07359", "Kc cell number, rep 1": 1.30e6, "Kc cell number, rep 2": 1.46e6, "S2R+ cell number, rep 1": 1.16e6, "S2R+ cell number, rep 2": 1.09e6, "Call": "inactive"}
